Assay results: paper PMC4820699
No constants are given. Whether binding was seen depends on the method and setting. In cells and extracts the contact can be indirect. A yes stands for co-enrichment or nearness to the bait. Other partners may have been found.

Protein sequences, listed by entry. Tags and fused reporters are not part of them.
UniProt B5Z6X0: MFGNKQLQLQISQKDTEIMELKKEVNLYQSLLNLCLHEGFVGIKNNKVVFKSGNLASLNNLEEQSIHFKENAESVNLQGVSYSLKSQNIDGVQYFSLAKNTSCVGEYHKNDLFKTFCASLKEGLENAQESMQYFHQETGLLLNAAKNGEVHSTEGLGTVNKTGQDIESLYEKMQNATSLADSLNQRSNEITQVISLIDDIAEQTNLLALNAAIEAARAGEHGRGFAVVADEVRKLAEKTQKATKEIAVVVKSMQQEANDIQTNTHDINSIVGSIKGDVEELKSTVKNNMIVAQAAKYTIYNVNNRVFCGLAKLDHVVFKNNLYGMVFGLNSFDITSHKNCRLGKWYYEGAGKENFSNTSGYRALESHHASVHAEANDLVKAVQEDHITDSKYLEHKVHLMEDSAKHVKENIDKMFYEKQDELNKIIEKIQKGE

Molecular target: histidine-tagged TlpD (TlpD-Hisx6) (H. pylori) (UniProt B5Z6X0)
Experiment: affinity purification with mass spectrometry; TlpD-Hisx6 pulled down on Talon (Cobalt2+-coupled) beads from cleared lysates of plate-grown H. pylori N6 tlpD (TlpD-Hisx6); bands >82 kDa seen only against the tlpD mutant control were cut from Coomassie-stained 12% SDS gels and analysed by MS/MS; two independent experiments

B1: isoleucyl-tRNA synthetase IleS (enzyme, UniProt P56456 1-920)
chain: MEEYKDTLNLNTTTFSMKGNLSVNEPKTYAKWQEQQAFKRMQARKDNHGDFTLHDGPPYANGHLHLGHALNKILKDIVVKREYFKGKKIYYTPGWDCHGLPIEQQILERLEKEKTSLENPTLFREKCRDHAKKFLEIQKNEFLQLGVLGDFEDPYKTMDFKFEASIYRALVEVAKKGLLKERHKPIYWSYACESALAEAEVEYKMKKSPSIFVAFGLKKESLEKLKVKKASLVIWTTTPWTLYANVAIALKKDAVYALTQKGYLVAKALHEKLAALGVVDNEITHEFNSNDLEYLVATNPLNQRDSLVALGEHVGLEDGTGAVHTAPGHGEEDYYLGLRYNLEVLMSVDEKGCYDEGIIHNQLLDESYLGEHVFKAQKRIIEQLGDSLLLEQEIEHSYPHCWRTHKPVIYRATTQWFILMDEPFIQNDGSQKTLREVALDAIEKVEFVPSSGKNRLKTMIENRPDWCLSRQRKWGVPLAFFIDKRTNKPCFESEVLEHVANLFEKKGCDVWWEYSVKDLLPPSYQEDAKHYEKIMHILDVWFDSGSTFKAVLEDYHGEKGQSPSDVILEGSDQHRGWFQSSLLIGCVLNNQAPFKKVITHGFIVDEKGEKMSKSKGNVVSLDKLLKTHGSDVVRLWVAFNDYQNDLRVSQTFFTQTEQHYKKFRNTLKFLLANFSDMDLKNLERPHNFSPLDHFMLETLETISAGVNSAFEEHDFVKGLNILMAFVTNELSGIYLDACKDSLYCDSKNNEKRQAIQMVLLATASKLCYFLAPILTHTIEEVLEHSQALRIFLQAKDVFDLKDISVSEKLHLKEFKKPENFEAVLALRSAFNEELDRLKKEGVIKNSLECAIEVKEKALDENLVEELLMVSFVGIAKEKLSETPAFTLFKAPFYKCPRCWRFKSELENTPCKRCEQVLKER
For B1, which binding is on record?
Its binding is “binds”.

B2: aconitate hydratase AcnB (enzyme, UniProt P56418 1-852)
chain: MKDFLEDYKKSVSERGSEGIPPLPLNAKQVQAVVEILTKDPTNAAFAKELLIHRVSPGVDEGAKVKAEFLAKLSQKKLECVHISALEATTLLGTMLGGYNVEPLIMGLESQDKNIAKESAKALKTTLLVYGSFDKIAAMSKTNALAKEVLESWANAEWFLNKEPLNECIEACVFKIDGETNTDDLSPASDAFTRSDIPLHAKAMLKNRIENYEQRIKAIKTKGVPVAYVGDVVGTGSSRKSATNSIMWHFGKDIPFVPNKRSGGIVIGGVIAPIFFATCEDSGALPIVADVKDLKEGDLIKIYPYKGEITLNDKVVSTFKLEPETLLDEVRASGRIPLIIGRGLTNKARKFLGLGESEAFKKPSAPKSDAKGYTLAQKIVGHACGVKGILPGTYCEPKVTTVGSQDTTGAMTRDEVKELASLKFDAPFVLQSFCHTAAYPKPSDVSLHATLPGFITQRGGVALHPGDGVIHTWLNRMGLPDTLGTGGDSHTRFPLGISFPAGSGLVAFAAVTGTMPLNMPESVLVRFKGEMNPGITLRDLVNAIPYYAIKKGLLTVEKKGKINVFNGRILEIEGLPDIKMEQAFELSDASAERSAAACVVRLNKEPMIEYLKSNIKLIDEMIASGYEDKETLKKRRDAMQAWVDNPVLLEPDSNAQYAAVIEIDVAEITEPILACPNDPDDVATLSEVLADTTGKRPHAIDEVFIGSCMTNIGHFRAFGEIVKNAPPSQARLWVVPPSKMDEQELINEGYYAIFGAAGARTEVPGCSLCMGNQARVRDNAVVFSTSTRNFDNRMGRGAKVYLGSAELGAACALLGRIPTKEEYMNLVSEKLESQKDKIYRYMNFNLMENFRL
Which binding does the source give for B2 here?
The binding was “binds”.
